Test results as given in PubChem BioAssay AID504467 (National Center for Advancing Translational Sciences (NCATS), 2011).
About 7,700 (2.3%) of roughly 330,000 compounds were called active. This list was built around the results that the source calls inconclusive (neither active nor inactive); the mix of calls is not that of the screen. The call rests on the fitted dose curve; in most records, active means well fitted inhibition curve with a large enough effect; inconclusive means small, poorly fitted or top-dose-only effect, or effect the other way; inactive means flat fitted curve, though single readings scatter. Potencies beside an inconclusive call are fits to weak or partial responses and may not hold up.

Assay: qHTS screen for small molecules that inhibit ELG1-dependent DNA repair in human embryonic kidney (HEK293T) cells expressing luciferase-tagged ELG1; further: nearly all actives have a fitted effect of over 55% in size
Conditions: HEK293T ELG1-luciferase reporter, luminescence, 16 h, DNA damage induced by 5-fluorouridine; activity change, negative = inhibition: at 46.1 µM (top of the series)
How it was run: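 5-Fluorouridine DNA damage + compound/DMSO, 2,000 cells/well, 16 h, 37 °C/5% CO2. ONE-Glo, 30 min RT, luminescence. Readout = decrease in reporter signal.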
On the % scale 0 is the no-effect control and ±100 the full control effect; potency means the concentration at half of the fitted maximal effect.

Compound | Potency | activity change, negative = inhibition
Nc1nnc(COc2ccc(Br)cc2Br)s1 | inconclusive: 18.4 µM [activator, partial curve] | 
C/C(=N\Nc1cc(C(F)(F)F)ccc1Cl)c1ccccc1O |  | inactive: 11.6%
COc1ccc(-c2cn(-c3ccccc3)c(=S)[nH]2)cc1OC | inconclusive: 23.1 µM [activator, single point] | 
COc1ccc(-n2ncc3c2CC(C)(C)CC3NC(=O)c2c(C)cc(=O)oc2C)cc1 (configuration not stated) |  | inactive: 11.7%
Cn1cccc1/C=N\NC(=O)Cc1ccc(Br)c2ccccc12 | active: 3.66 µM | 
COc1cc2c(cc1NC(=O)COC(=O)C(CCSC)NC(=O)c1ccccc1Cl)oc1ccccc12 (configuration not stated) | inconclusive: 20.6 µM [activator, single point] | 
Cc1ccc(S(=O)(=O)N2CCN(C(=O)N(c3ccccc3)c3ccccc3)CC2)cc1 | inconclusive: 23.1 µM [inhibitor, single point] | 
C=CCn1c(CCSCc2ccc(OC)c(C)c2)n[nH]c1=S | inconclusive: 23.1 µM [inhibitor, single point] | 
CCc1cc2c(=O)[nH]c(CC(N)=O)nc2s1 |  | inactive: 11.9%
CCOC(=O)N1CCN(C(=O)C2CCN(c3ncnc4c3sc3cccc(F)c34)CC2)CC1 | inconclusive: 22.4 µM [inhibitor, single point] | 
Cc1ccc(-n2c(C)cc(/C=N/NC(=O)Cn3c4ccccc4c(=O)c4ccccc43)c2C)cc1 |  | inactive: -19.2%
O=C(Nc1cccc(S(=O)(=O)N2CCCCC2)c1)c1ccc2c(c1)OCO2 | inconclusive: 20.6 µM [inhibitor, single point] | 
Cc1csc2nc3ccccc3c(=O)n12 | inconclusive: 7.31 µM [activator, partial curve, poor fit] | 
CCOC(=O)N1CCN(c2c(NCCCOC(C)C)c(=O)c2=O)CC1 |  | inactive: 2.48%
COc1ccc(-c2ccc(Nc3ccc(C(=O)N4CCOCC4)cc3)nn2)cc1OC | inconclusive: 29.1 µM [inhibitor, single point] | 
COc1cccc(NC(=O)Cn2c3ccc(OC)cc3c3nc4n(c(=O)c32)CCS4)c1 | inconclusive: 2.31 µM [inhibitor, partial curve] | 
C/C(=N\NC(=O)c1nn(C)c(C)c1Br)c1ccc(NC(=O)c2ccoc2C)cc1 | inconclusive: 18.4 µM [activator, single point] | 
COc1ccc(NC(=O)CSc2nc3ccccc3nc2N2CCCC2)c(OC)c1 |  | inactive: 8.11%
O=C(Nc1ccc(N2CCCCC2)cc1)C(Cl)c1ccccc1 (configuration not stated) | inconclusive: 4.11 µM [activator, full curve] | 
CCCOc1ccccc1N1C(=O)CC(N2CCOCC2)C1=O (configuration not stated) | inconclusive: 10.3 µM [activator, single point] | 
Cc1ccccc1CN(C)C(=O)COC(=O)c1ccc2[nH]c(C)c(C)c2c1 | active: 25.9 µM | 
Cc1ccc(S(=O)(=O)N2CCOCC2)cc1C(=O)NCc1ccccc1CN1CCCC1 |  | inactive: 5.43%
COc1ccc(Cl)cc1C(=O)NCc1ccco1 | inconclusive: 32.6 µM [activator, single point] | 
CC1(C)Cc2ccccc2C(c2cc3ccccc3oc2=O)=N1 |  | inactive: -20.4%

A section taken from the entries so far, for reference:
Compound | Potency | activity change, negative = inhibition
C/C(=N\Nc1cc(C(F)(F)F)ccc1Cl)c1ccccc1O |  | inactive: 11.6%
COc1ccc(-c2cn(-c3ccccc3)c(=S)[nH]2)cc1OC | inconclusive: 23.1 µM [activator, single point] | 
COc1ccc(-n2ncc3c2CC(C)(C)CC3NC(=O)c2c(C)cc(=O)oc2C)cc1 (configuration not stated) |  | inactive: 11.7%
Cn1cccc1/C=N\NC(=O)Cc1ccc(Br)c2ccccc12 | active: 3.66 µM | 
COc1cc2c(cc1NC(=O)COC(=O)C(CCSC)NC(=O)c1ccccc1Cl)oc1ccccc12 (configuration not stated) | inconclusive: 20.6 µM [activator, single point] | 

(list continues)

Compound | Potency | activity change, negative = inhibition
N#Cc1ccc(OCC(=O)N2CCc3ccccc32)cc1 | inconclusive: 1.64 µM [activator, partial curve, poor fit] | 
Cc1cccc(NC(=O)CN2C(=O)N/C(=C/c3ccc(-c4cccc(C(=O)O)c4C)o3)C2=O)c1 |  | inactive: -4.57%
CCCNC(=O)c1ccc(N2CCC3(CC2)CC(c2ccc(Cl)cc2)=NO3)c([N+](=O)[O-])c1 | inconclusive: 29.1 µM [inhibitor, single point] | 
COC(=O)C1=C(C)N(c2ccccc2)/C(=C/c2ccco2)C1=O | inconclusive: 9.2 µM [inhibitor, partial curve, poor fit] | 
CC1c2[nH]c3ccccc3c2C[C@H]2C(=O)N(CCCN(C)C)CC(=O)N12 (some centres not stated) | inconclusive: 20.6 µM [activator, single point] | 
CC(NC(=S)Nc1ccccc1OC(F)F)C(C)(C)C (configuration not stated) |  | inactive: 9.54%
Cc1ccc(NC(=O)c2cc(N3CCOCC3)nc3ccccc23)cc1 | active: 14.6 µM | 
COc1cccc(OC(=O)c2cc3ccccc3oc2=O)c1 |  | inactive: -27.1%
COC(=O)c1ccc(NC(=O)Nc2ccc(F)c(Cl)c2)cc1 | inconclusive: 16.4 µM [activator, partial curve, poor fit] | 
Cc1nn(C)cc1C(C)NCc1c(C(=O)N2CCCCCCC2)nc2ccc(Cl)cn12 (configuration not stated) |  | inactive: 4.42%
Cc1cc(OCc2cc(C(=O)NCCN3CCCCC3CO)no2)cc(C)c1Cl (configuration not stated) |  | inactive: -8.54%
Cc1ccc(Cn2c(=O)n(C)c(=O)c3sccc32)cc1 |  | inactive: 5.11%
CCO/N=C/C(=O)Nc1ccc(F)cc1F | inconclusive: 14.6 µM [activator, partial curve, poor fit] | 
OCC1(Cc2ccccc2)CCCN(Cc2c[nH]c3ccccc23)C1 (configuration not stated) |  | inactive: 9.35%
CCC1(C)NC(=O)N(/N=C/c2ccc(C)s2)C1=O (configuration not stated) | inconclusive: 14.6 µM [activator, partial curve] | 
CCCNC(=O)Nc1ccc(C(F)(F)F)cc1 | inconclusive: 16.4 µM [activator, single point] | 
O=C(Nc1nccs1)c1cc2sccc2n1Cc1ccc(Cl)cc1 |  | inactive: 23.1%
O=C(Cc1noc2ccccc12)Nc1ccccn1 | inconclusive: 14.6 µM [activator, partial curve] | 
COc1ccc(Cl)cc1NC(=O)CC(=O)Nc1cc(Cl)ccc1OC |  | inactive: 4.25%
COc1ccc(C(=O)NCc2ccon2)cc1OC1CCN(C(C)C)CC1 |  | inactive: 19.7%
Cc1ccc(-n2nc(C)c3c(C)c(CCC(=O)NCC4CCCO4)c(=O)n(C)c32)cc1 (configuration not stated) | inconclusive: 23.1 µM [inhibitor, partial curve] | 
CSC1=NC(C)(C)C=C(/C=C/c2ccc(Cl)cc2)N1 |  | inactive: -12.6%
COc1cc(NC(=O)CN(C)S(=O)(=O)c2ccc(-c3ccc(=O)[nH]n3)s2)cc(OC)c1 | inconclusive: 20.6 µM [inhibitor, single point] | 
N/C(=N\OC(=O)CC1CCCCC1)c1ccncc1 | inconclusive: 18.3 µM [activator, partial curve, poor fit] | 

Compound | Potency | activity change, negative = inhibition
CC[C@@]1(C(=O)OC)N[C@H](CN(C)S(=O)(=O)c2ccccc2)[C@@H]2C(=O)N(C)C(=O)[C@@H]21 |  | inactive: 2.07%
COCCN1C=C(C(=O)OC)C(c2ccc(OC)c(OC)c2)C(C(=O)OC)=C1 | inconclusive: 25.9 µM [activator, single point] | 
O=C(NCc1cccc(Cl)c1)C1CCC(=O)N(CCCN2CCOCC2)C1 (configuration not stated) | inconclusive: 0.184 µM [inhibitor, full curve, poor fit] | 
CSc1ncc(Cl)c(C(=O)Nc2ccc(S(=O)(=O)Nc3nccc(C)n3)cc2)n1 | inconclusive: 9.2 µM [activator, partial curve] | 
CC1CCc2cc(F)ccc2N1C(=O)c1cc2nc(-c3ccco3)cc(C(F)(F)F)n2n1 (configuration not stated) | inconclusive: 29.1 µM [inhibitor, single point] | 
CCCC1=Nc2cc(C(=O)NCc3ccco3)ccc2Sc2ccccc21 | inconclusive: 2.91 µM [inhibitor, single point] | 
O=C(NCC1CCCO1)c1ccc(NC(=O)C2C3C=CC(C3)C2C(=O)O)cc1 (configuration not stated) |  | inactive: 7.85%
Cc1ccc(CCNC(=O)C2CCC(=O)N(Cc3cccc(F)c3)C2)cc1 (configuration not stated) | inconclusive: 29.1 µM [activator, partial curve, poor fit] | 
COc1ccc(-c2cc(C)no2)cc1S(=O)(=O)Nc1ccccc1 | inconclusive: 10.3 µM [activator, partial curve, poor fit] | 
O=C(NCCN1CCN(c2cccc(Cl)c2)CC1)c1ccc(CSc2nc3ccncc3[nH]2)cc1 | inconclusive: 23.1 µM [inhibitor, single point] | 
Cc1nnc(NC(=O)CSc2nnc(C(C)NC(=O)c3ccccc3F)n2C)s1 (configuration not stated) | inconclusive: 16.4 µM [activator, single point] | 
CCOC(=O)c1ccc(S(=O)(=O)Nc2cc(C(=O)O)ccc2Cl)cc1 |  | inactive: 9.57%
Cc1ccc(C)c(-n2cc(CNCCCn3cccn3)c(-c3ccccc3)n2)c1 |  | inactive: -7.99%
O=C(CCCN1C(=O)/C(=C\c2ccccc2)SC1=S)N1CCOCC1 | active: 18.3 µM | 
CCOc1ccc(CCNC(=O)CSCC(=O)Nc2cccc(C)c2)cc1OCC |  | inactive: -0.716%
Cc1ccc(NC(=O)Cc2ccccc2)cc1S(=O)(=O)N1CCOCC1 | inconclusive: 20.6 µM [inhibitor, partial curve, poor fit] | 
O=C(O)Cn1nc(-c2ccc(F)cc2)oc1=O |  | inactive: 0.706%
Cc1nc(N2CCOCC2)nc2c1CCCC2 | inconclusive: 23.1 µM [activator, partial curve, poor fit] | 
COc1ccc(C(=O)N(C)C2CCCCC2)cc1S(=O)(=O)N1CCOCC1 |  | inactive: 3.5%
CCC(C)(C)NC(=O)C(c1ccc(OC)cc1)N(Cc1cccs1)C(=O)CCC(=O)Nc1cc(C)on1 (configuration not stated) | active: 18.4 µM | 
CC1CN(C(=O)c2ccc(COc3ccc4ccccc4c3)o2)CC(C)O1 (configuration not stated) | inconclusive: 3.66 µM [activator, full curve] | 
Cc1ccc(N=Nc2c(O)[nH]c3ccc(F)cc23)cc1 | inconclusive: 20.6 µM [activator, partial curve] | 
CCC(C(=O)Nc1cccc(S(=O)(=O)N(C)c2ccccc2)c1)c1ccccc1 (configuration not stated) | inconclusive: 10.3 µM [inhibitor, partial curve, poor fit] | 
O=C(NCCOc1ccccc1)c1ccc2c(c1)OCO2 | inconclusive: 0.259 µM [activator, partial curve, poor fit] | 
